Results as given in PMC10353822.

Protein sequences, listed by entry. Tags and fused reporters are not part of them.
UniProt Q9UPN9: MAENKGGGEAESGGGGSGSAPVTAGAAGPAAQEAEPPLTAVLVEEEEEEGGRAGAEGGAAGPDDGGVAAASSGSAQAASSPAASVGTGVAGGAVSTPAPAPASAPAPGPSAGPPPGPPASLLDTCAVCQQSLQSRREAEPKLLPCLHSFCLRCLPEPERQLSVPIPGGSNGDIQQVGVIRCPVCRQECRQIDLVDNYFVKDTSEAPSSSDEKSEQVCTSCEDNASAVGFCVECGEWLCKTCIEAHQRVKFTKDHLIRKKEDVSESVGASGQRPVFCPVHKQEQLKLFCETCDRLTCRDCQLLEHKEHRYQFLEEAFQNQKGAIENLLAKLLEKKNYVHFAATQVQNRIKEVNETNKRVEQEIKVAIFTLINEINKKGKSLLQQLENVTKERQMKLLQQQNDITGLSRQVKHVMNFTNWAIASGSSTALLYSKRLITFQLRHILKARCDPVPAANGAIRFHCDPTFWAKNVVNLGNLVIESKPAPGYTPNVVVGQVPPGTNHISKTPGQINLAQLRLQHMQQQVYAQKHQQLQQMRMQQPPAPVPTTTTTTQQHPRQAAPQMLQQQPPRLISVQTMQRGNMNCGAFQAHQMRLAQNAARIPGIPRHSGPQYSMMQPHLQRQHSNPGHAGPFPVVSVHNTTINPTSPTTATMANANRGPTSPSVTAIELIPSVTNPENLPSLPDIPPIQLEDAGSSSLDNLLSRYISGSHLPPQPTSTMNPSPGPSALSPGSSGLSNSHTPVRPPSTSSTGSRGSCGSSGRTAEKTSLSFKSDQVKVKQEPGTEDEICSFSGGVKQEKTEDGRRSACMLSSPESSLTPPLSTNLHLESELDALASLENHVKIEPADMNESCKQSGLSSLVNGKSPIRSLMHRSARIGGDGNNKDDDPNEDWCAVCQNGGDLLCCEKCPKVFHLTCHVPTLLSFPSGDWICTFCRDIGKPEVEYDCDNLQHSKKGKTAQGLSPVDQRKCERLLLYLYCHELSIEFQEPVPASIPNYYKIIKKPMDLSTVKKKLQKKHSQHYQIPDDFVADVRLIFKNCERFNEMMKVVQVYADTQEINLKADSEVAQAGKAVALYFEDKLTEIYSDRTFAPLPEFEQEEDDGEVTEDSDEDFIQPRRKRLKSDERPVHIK
UniProt P03206: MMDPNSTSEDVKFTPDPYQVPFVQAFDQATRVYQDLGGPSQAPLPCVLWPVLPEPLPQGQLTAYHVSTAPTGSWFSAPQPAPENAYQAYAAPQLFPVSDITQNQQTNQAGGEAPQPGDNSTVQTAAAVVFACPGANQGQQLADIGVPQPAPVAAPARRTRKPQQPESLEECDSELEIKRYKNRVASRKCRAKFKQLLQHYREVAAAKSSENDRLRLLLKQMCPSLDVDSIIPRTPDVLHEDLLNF

Molecular target: TRIM33 with C-terminal FLAG (UniProt Q9UPN9)
Test: affinity purification with mass spectrometry; TRIM33-FLAG expressed in AGS-EBV-Z cells, dox 24 h; 6 mg lysate on anti-FLAG M2 magnetic beads 4 h at 4°C; RIPA buffer (50 mM Tris-HCl pH 8.0, 300 mM NaCl, 0.1% sodium deoxycholate, 0.5% NP40 substitute, 2 mM EDTA); two independent experiments

## BZLF1 from the dox-inducible cassette (B95-8 EBV strain) (from UniProt P03206 1-245)
  binding: binds

These are yes or no findings as the source states them, for the method shown. In cells and extracts the contact can be indirect. A yes stands for co-enrichment or nearness to the bait. Other partners may have been found.
